Sequences of proteins named here, by UniProt entry; tags and fusion partners are left off.
UniProt Q9BR76: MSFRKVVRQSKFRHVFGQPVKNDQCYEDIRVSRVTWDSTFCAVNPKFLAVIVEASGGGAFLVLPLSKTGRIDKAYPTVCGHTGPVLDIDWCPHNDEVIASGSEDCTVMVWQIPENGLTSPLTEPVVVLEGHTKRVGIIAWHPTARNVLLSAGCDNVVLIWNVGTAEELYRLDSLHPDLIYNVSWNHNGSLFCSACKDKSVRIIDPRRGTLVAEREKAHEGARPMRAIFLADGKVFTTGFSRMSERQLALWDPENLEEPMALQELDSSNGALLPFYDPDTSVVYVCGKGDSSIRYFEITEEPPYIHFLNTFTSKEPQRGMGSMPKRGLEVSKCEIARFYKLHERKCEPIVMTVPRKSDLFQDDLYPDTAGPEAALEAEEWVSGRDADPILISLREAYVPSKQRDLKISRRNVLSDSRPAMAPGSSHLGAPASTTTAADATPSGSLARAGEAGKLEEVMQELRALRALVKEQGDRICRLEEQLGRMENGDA
UniProt P35222: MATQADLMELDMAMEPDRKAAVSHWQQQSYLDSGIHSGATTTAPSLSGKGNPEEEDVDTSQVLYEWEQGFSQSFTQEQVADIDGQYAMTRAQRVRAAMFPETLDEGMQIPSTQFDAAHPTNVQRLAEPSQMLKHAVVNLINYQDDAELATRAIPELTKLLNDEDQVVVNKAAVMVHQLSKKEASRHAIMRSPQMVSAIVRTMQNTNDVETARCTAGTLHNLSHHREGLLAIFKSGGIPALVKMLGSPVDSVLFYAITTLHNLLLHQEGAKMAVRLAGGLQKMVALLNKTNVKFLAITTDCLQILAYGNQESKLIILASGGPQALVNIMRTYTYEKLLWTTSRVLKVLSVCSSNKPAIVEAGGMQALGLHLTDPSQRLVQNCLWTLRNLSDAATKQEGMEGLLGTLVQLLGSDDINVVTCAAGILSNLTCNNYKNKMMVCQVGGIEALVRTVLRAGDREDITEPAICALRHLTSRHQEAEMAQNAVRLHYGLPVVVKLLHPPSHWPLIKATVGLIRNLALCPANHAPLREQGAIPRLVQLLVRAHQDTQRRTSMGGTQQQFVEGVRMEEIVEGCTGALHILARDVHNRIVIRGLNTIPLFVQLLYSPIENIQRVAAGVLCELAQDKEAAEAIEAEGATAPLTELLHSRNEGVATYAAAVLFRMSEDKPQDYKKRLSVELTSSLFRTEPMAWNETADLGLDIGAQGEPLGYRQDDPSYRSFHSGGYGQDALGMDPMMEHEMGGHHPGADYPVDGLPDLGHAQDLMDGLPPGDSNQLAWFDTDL
UniProt Q13418: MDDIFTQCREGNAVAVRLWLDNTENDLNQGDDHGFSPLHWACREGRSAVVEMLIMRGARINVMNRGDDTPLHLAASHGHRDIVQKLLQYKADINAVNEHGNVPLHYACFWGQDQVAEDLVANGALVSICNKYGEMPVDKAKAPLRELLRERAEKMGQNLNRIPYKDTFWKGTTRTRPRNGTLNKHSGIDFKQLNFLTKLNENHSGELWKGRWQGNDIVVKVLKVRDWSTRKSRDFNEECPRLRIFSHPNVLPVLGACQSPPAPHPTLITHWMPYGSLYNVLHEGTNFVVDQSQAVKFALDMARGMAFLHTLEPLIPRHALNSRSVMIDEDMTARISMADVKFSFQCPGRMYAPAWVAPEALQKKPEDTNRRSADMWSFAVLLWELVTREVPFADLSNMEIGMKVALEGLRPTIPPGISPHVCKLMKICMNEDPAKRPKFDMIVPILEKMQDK

According to article PMC7411154:

How the values were obtained:
[1] = molecular target: Coronin 1B-GFP fusion protein (UniProt Q9BR76); test: affinity purification with mass spectrometry; GFP-Trap beads with lysates of HMECs stably expressing Coro1B-GFP or GFP (control); on-bead digestion, label-free LC-MS/MS, iBAQ; hits: log2 enrichment above 2 and p-value below 0.05 against the GFP control; n = 4
[2] = molecular target: Coronin 1B-GFP fusion protein (UniProt Q9BR76); test: as above; remark: listed apart in the source

Molecule | binding [1] | binding [2]
β-catenin (from UniProt P35222 1-781) | no binding | –
integrin-linked kinase (ILK) (from UniProt Q13418 1-452) | binds | –
VE-cadherin (VEcad) (protein, UniProt P33151 48-784) DWIWNQMHIDEEKNTSLPHHVGKIKSSVSRKNAKYLLKGEYVGKVFRVDAETGDVFAIERLDRENISEYHLTAVIVDKDTGENLETPSSFTIKVHDVNDNWPVFTHRLFNASVPESSAVGTSVISVTAVDADDPTVGDHASVMYQILKGKEYFAIDNSGRIITITKSLDREKQARYEIVVEARDAQGLRGDSGTATVLVTLQDINDNFPFFTQTKYTFVVPEDTRVGTSVGSLFVEDPDEPQNRMTKYSILRGDYQDAFTIETNPAHNEGIIKPMKPLDYEYIQQYSFIVEATDPTIDLRYMSPPAGNRAQVIINITDVDEPPIFQQPFYHFQLKENQKKPLIGTVLAMDPDAARHSIGYSIRRTSDKGQFFRVTKKGDIYNEKELDREVYPWYNLTVEAKELDSTGTPTGKESIVQVHIEVLDENDNAPEFAKPYQPKVCENAVHGQLVLQISAIDKDITPRNVKFKFILNTENNFTLTDNHDNTANITVKYGQFDREHTKVHFLPVVISDNGMPSRTGTSTLTVAVCKCNEQGEFTFCEDMAAQVGVSIQAVVAILLCILTITVITLLIFLRRRLRKQARAHGKSVPEIHEQLVTYDEEGGGEMDTTSYDVSVLNSVRRGGAKPPRPALDARPSLYAQVQKPPRHAPGAHGGPGEMAAMIEVKKDEADHDGDGPPYDTLHIYGYEGSESIAESLSSLGTDSSDSDVDYDFLNDWGPRFKMLAELYGSDPREELLY | – | no binding

Where two headings read alike, the source gives them in different places. No constants are given. Whether binding was seen depends on the method and setting. In cells and extracts the contact can be indirect. A yes stands for co-enrichment or nearness to the bait. Other partners may have been found. A no says only that the protein was not detected with the bait.
